Test results taken from patent publication US7160887B1, “Aromatic amine derivatives, their production and use” (Takeda Pharmaceutical Company Limited, priority 1998, dated 2007).
Counter-ions that a name gives are not always drawn. Some entries share one result that the patent states for a list of compounds. At least one compound was matched to its structure with a doubt left.

Each compound was assayed against human somatostatin receptor (assay: 125I-somatostatin binding inhibition). Conditions: 50% binding inhibition concentration of 125I-somatostatin binding; human somatostatin receptor-containing CHO cell membrane fraction; 25° C., 60 minutes; read-out: reactivity (IC50, μM) on the human somatostatin receptor.

IC50, ≤ 10 µM:
COc1ccccc1CNC(=O)CCC(=O)N(Cc1ccc(Oc2ccccc2)cc1)c1ccccc1Oc1cccc(CN)c1 [Example 33, N-[2-(3-aminomethylphenoxy)phenyl]-N-(4-phenoxybenzyl)-N′-(2-methoxybenzyl)succinamide trifluoroacetate]
NCc1cccc(Oc2ccccc2N(Cc2ccc(Oc3ccccc3)cc2)C(=O)CCC(=O)NCCc2ccc(Cl)cc2Cl)c1 [Example 34, N-[2-(3-aminomethylphenoxy)phenyl]-N-(4-phenoxybenzyl)-N′-[2-(2,4-dichlorophenethyl)]succinamide trifluoroacetate]
NCc1cccc(Oc2ccccc2N(Cc2ccc(Oc3ccccc3)cc2)C(=O)CCC(=O)NCc2cccc3ccccc23)c1 [Example 35, N-[2-(3-aminomethylphenoxy)phenyl]-N-(4-phenoxybenzyl)-N′-(1-naphthylmethyl)succinamide trifluoroacetate]
NCc1cccc(Oc2ccccc2N(Cc2ccc(Oc3ccccc3)cc2)C(=O)CCC(=O)NC2CCc3ccccc32)c1 (centres unmarked) [Example 36, N-[2-(3-aminomethylphenoxy)phenyl]-N-(4-phenoxybenzyl)-N′-(1-indanyl)succinamide trifluoroacetate]
NCc1cccc(Oc2ccccc2N(Cc2ccc(Oc3ccccc3)cc2)C(=O)CCC(=O)NCc2ccccn2)c1 [Example 37, N-[2-(3-aminomethylphenoxy)phenyl]-N-(4-phenoxybenzyl)-N′-(2-pyridylmethyl)succinamide trifluoroacetate]
NCc1cccc(Oc2ccccc2N(Cc2ccc(Oc3ccccc3)cc2)C(=O)CCC(=O)N2CCc3ccccc3C2)c1 [Example 38, N-[2-(3-aminomethylphenoxy)phenyl]-N-(4-phenoxybenzyl)-N′-(1,2,3,4-tetrahydroisoquinolino)succinamide trifluoroacetate]
CC(C)(C)c1ccc(CN(C(=O)CCC(=O)NCc2ccccc2F)c2ccccc2Oc2cccc(CN)c2)cc1 [Example 41, N-[2-(3-aminomethylphenoxy)phenyl]-N-(4-tert-butylbenzyl)-N′-(2-fluorobenzyl)succinamide trifluoroacetate]
CC(C)(C)c1ccc(CN(C(=O)CCC(=O)NCc2c(F)cccc2F)c2ccccc2Oc2cccc(CN)c2)cc1 [Example 42, N-[2-(3-aminomethylphenoxy)phenyl]-N-(4-tert-butylbenzyl)-N′-(2,6-difluorobenzyl)succinamide trifluoroacetate]
CC(C)(C)c1ccc(CN(C(=O)CCC(=O)NCc2ccc(F)c(F)c2)c2ccccc2Oc2cccc(CN)c2)cc1 [Example 43, N-[2-(3-aminomethylphenoxy)phenyl]-N-(4-tert-butylbenzyl)-N′-(3,4-difluorobenzyl)succinamide trifluoroacetate]
CC(C)(C)c1ccc(CN(C(=O)CCC(=O)NCc2ccccc2C(F)(F)F)c2ccccc2Oc2cccc(CN)c2)cc1 [Example 44, N-[2-(3-aminomethylphenoxy)phenyl]-N-(4-tert-butylbenzyl)-N′-(2-trifluoromethylbenzyl)succinamide trifluoroacetate]
COc1ccc(CNC(=O)CCC(=O)N(Cc2ccc(C(C)(C)C)cc2)c2ccccc2Oc2cccc(CN)c2)cc1 [Example 45, N-[2-(3-aminomethylphenoxy)phenyl]-N-(4-tert-butylbenzyl)-N′-(4-methoxybenzyl)succinamide trifluoroacetate]
CC(C)(C)c1ccc(CN(C(=O)CCC(=O)NCc2cccc3ccccc23)c2ccccc2Oc2cccc(CN)c2)cc1 [Example 47, N-[2-(3-aminomethylphenoxy)phenyl]-N-(4-tert-butylbenzyl)-N′-(1-naphthylmethyl)succinamide trifluoroacetate]
CC(C)(C)c1ccc(CN(C(=O)CCC(=O)NC2CCc3ccccc32)c2ccccc2Oc2cccc(CN)c2)cc1 (centres unmarked) [Example 48, N-[2-(3-aminomethylphenoxy)phenyl]-N-(4-tert-butylbenzyl)-N′-(1-indanyl)succinamide trifluoroacetate]
CC(C)(C)c1ccc(CN(C(=O)CCC(=O)NCc2cccnc2)c2ccccc2Oc2cccc(CN)c2)cc1 [Example 49, N-[2-(3-aminomethylphenoxy)phenyl]-N-(4-tert-butylbenzyl)-N′-(3-pyridylmethyl)succinamide trifluoroacetate]
CC(C)(C)c1ccc(CN(C(=O)CCC(=O)N2CCc3ccccc3C2)c2ccccc2Oc2cccc(CN)c2)cc1 [Example 50, N-[2-(3-aminomethylphenoxy)phenyl]-N-(4-tert-butylbenzyl)-N′-(1,2,3,4-tetrahydroisoquinolino)succinamide trifluoroacetate]
CC(C)(C)c1ccc(CN(C(=O)CCC(=O)NCCN2CCCC2)c2ccccc2Oc2cccc(CN)c2)cc1 [Example 52, N-[2-(3-aminomethylphenoxy)phenyl]-N-(4-tert-butylbenzyl)-N′-[2-(1-pyrrolidinoethyl)]succinamide trifluoroacetate]
NCc1cccc(Oc2ccccc2N(Cc2cccc3ccccc23)C(=O)CCC(=O)NCc2ccccc2F)c1 [Example 53, N-[2-(3-aminomethylphenoxy)phenyl]-N-(1-naphthylmethyl)-N′-(2-fluorobenzyl)succinamide trifluoroacetate]
NCc1cccc(Oc2ccccc2N(Cc2cccc3ccccc23)C(=O)CCC(=O)NCc2c(F)cccc2F)c1 [Example 54, N-[2-(3-aminomethylphenoxy)phenyl]-N-(1-naphthylmethyl)-N′-(2,6-difluorobenzyl)succinamide trifluoroacetate]
NCc1cccc(Oc2ccccc2N(Cc2cccc3ccccc23)C(=O)CCC(=O)NCc2ccc(F)c(F)c2)c1 [Example 55, N-[2-(3-aminomethylphenoxy)phenyl]-N-(1-naphthylmethyl)-N′-(3,4-difluorobenzyl)succinamide trifluoroacetate]
NCc1cccc(Oc2ccccc2N(Cc2cccc3ccccc23)C(=O)CCC(=O)NCc2ccccc2C(F)(F)F)c1 [Example 56, N-[2-(3-aminomethylphenoxy)phenyl]-N-(1-naphthylmethyl)-N′-(2-trifluoromethylbenzyl)succinamide trifluoroacetate]
COc1ccc(CNC(=O)CCC(=O)N(Cc2cccc3ccccc23)c2ccccc2Oc2cccc(CN)c2)cc1 [Example 57, N-[2-(3-aminomethylphenoxy)phenyl]-N-(1-naphthylmethyl)-N′-(4-methoxybenzyl)succinamide trifluoroacetate]
NCc1cccc(Oc2ccccc2N(Cc2cccc3ccccc23)C(=O)CCC(=O)NCCc2ccc(Cl)cc2Cl)c1 [Example 58, N-[2-(3-aminomethylphenoxy)phenyl]-N-(1-naphthylmethyl)-N′-[2-(2,4-dichlorophenethyl)]succinamide trifluoroacetate]
NCc1cccc(Oc2ccccc2N(Cc2cccc3ccccc23)C(=O)CCC(=O)NCc2cccc3ccccc23)c1 [Example 59, N-[2-(3-aminomethylphenoxy)phenyl]-N-(1-naphthylmethyl)-N′-(1-naphthylmethyl)succinamide trifluoroacetate]
NCc1cccc(Oc2ccccc2N(Cc2cccc3ccccc23)C(=O)CCC(=O)NC2CCc3ccccc32)c1 (centres unmarked) [Example 60, N-[2-(3-aminomethylphenoxy)phenyl]-N-(1-naphthylmethyl)-N′-(1-indanyl)succinamide trifluoroacetate]
NCc1cccc(Oc2ccccc2N(Cc2cccc3ccccc23)C(=O)CCC(=O)N2CCc3ccccc3C2)c1 [Example 62, N-[2-(3-aminomethylphenoxy)phenyl]-N-(1-naphthylmethyl)-N′-(1,2,3,4-tetrahydroisoquinolino)succinamide trifluoroacetate]
NCc1cccc(Oc2ccccc2N(Cc2cccc3ccccc23)C(=O)CCC(=O)NCCN2CCCC2)c1 [Example 64, N-[2-(3-aminomethylphenoxy)phenyl]-N-(1-naphthylmethyl)-N′-[2-(1-pyrrolidinoethyl)]succinamide trifluoroacetate]
CC(=O)Nc1ccc(CN(C(=O)CCC(=O)NCc2ccccc2F)c2ccccc2Oc2cccc(CN)c2)cc1 [Example 65, N-[2-(3-aminomethylphenoxy)phenyl]-N-(4-acetamidobenzyl)-N′-(2-fluorobenzyl)-succinamide trifluoroacetate]
CC(=O)Nc1ccc(CN(C(=O)CCC(=O)NCc2c(F)cccc2F)c2ccccc2Oc2cccc(CN)c2)cc1 [Example 66, N-[2-(3-aminomethylphenoxy)phenyl]-N-(4-acetamidobenzyl)-N′-(2,6-difluorobenzyl)succinamide trifluoroacetate]
CC(=O)Nc1ccc(CN(C(=O)CCC(=O)NCc2ccc(F)c(F)c2)c2ccccc2Oc2cccc(CN)c2)cc1 [Example 67, N-[2-(3-aminomethylphenoxy)phenyl]-N-(4-acetamidobenzyl)-N′-(3,4-difluorobenzyl)succinamide trifluoroacetate]
CC(=O)Nc1ccc(CN(C(=O)CCC(=O)NCc2ccccc2C(F)(F)F)c2ccccc2Oc2cccc(CN)c2)cc1 [Example 68, N-[2-(3-aminomethylphenoxy)phenyl]-N-(4-acetamidobenzyl)-N′-(2-trifluoromethylbenzyl)succinamide trifluoroacetate]
COc1ccc(CNC(=O)CCC(=O)N(Cc2ccc(NC(C)=O)cc2)c2ccccc2Oc2cccc(CN)c2)cc1 [Example 69, N-[2-(3-aminomethylphenoxy)phenyl]-N-(4-acetamidobenzyl)-N′-(4-methoxybenzyl)succinamide trifluoroacetate]
CC(=O)Nc1ccc(CN(C(=O)CCC(=O)NCCc2ccc(Cl)cc2Cl)c2ccccc2Oc2cccc(CN)c2)cc1 [Example 70, N-[2-(3-aminomethylphenoxy)phenyl]-N-(4-acetamidobenzyl)-N′-[2-(2,4-dichlorophenethyl)]succinamide trifluoroacetate]
